Test results: patent US20180030127A1
These are yes or no findings as the source states them, for the method shown. Some results given as binding are weak or reduced against the parent protein; the word gives no strength.

The chains behind the UniProt entries cited, without tags or fusion partners. Residues count along the entry.
UniProt P07724, residues 25-608: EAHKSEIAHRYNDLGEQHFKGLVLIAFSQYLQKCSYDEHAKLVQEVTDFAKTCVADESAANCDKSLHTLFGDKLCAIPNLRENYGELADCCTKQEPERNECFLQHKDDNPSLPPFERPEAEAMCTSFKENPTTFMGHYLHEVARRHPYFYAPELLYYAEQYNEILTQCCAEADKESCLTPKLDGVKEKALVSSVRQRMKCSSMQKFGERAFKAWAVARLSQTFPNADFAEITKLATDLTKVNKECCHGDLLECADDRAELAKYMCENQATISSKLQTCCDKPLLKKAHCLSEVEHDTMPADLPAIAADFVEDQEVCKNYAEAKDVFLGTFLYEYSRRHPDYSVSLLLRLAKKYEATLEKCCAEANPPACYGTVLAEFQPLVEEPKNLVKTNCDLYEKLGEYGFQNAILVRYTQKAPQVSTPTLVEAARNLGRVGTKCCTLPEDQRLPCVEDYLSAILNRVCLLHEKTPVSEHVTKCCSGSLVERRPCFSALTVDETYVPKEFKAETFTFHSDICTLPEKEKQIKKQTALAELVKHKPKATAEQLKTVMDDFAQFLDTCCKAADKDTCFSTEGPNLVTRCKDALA

Experiments:
[1] = molecular target: mouse serum albumin (mouse) (UniProt P07724); assay: monoclonal phage ELISA at pH 7.4: Fab on phage, about 10^8 CFU/well, on antigen coated at 5 ug/ml; anti-human kappa-HRPO, TMB, A450
[2] = molecular target: mouse serum albumin (mouse) (UniProt P07724); assay: monoclonal phage ELISA, pH 6 and pH 7.4
[3] = molecular target: mouse serum albumin (mouse) (UniProt P07724); assay: ELISA at pH 6.0: purified soluble Fab titrated on antigen coated at 5 ug/ml; anti-human kappa L chain pAb-HRPO, TMB, A450
[4] = molecular target: mouse serum albumin (mouse) (UniProt P07724); assay: ELISA, soluble Fab, antigen coated at 5 µg/ml
[5] = molecular target: mouse serum albumin (mouse) (UniProt P07724); assay: monoclonal phage ELISA at pH 6: Fab on phage, about 10^8 CFU/well, on antigen coated at 5 ug/ml; anti-human kappa-HRPO, TMB, A450
[6] = molecular target: mouse serum albumin (mouse) (UniProt P07724); assay: ELISA, purified soluble Fab, antigen coated at 5 µg/ml, pH 6 and pH 7.4
[7] = molecular target: mouse serum albumin (mouse) (UniProt P07724); assay: ELISA at pH 7.4: purified soluble Fab titrated on antigen coated at 5 ug/ml; anti-human kappa L chain pAb-HRPO, TMB, A450

Measured: binding

B1: SL335 (Fab, V domains shown)
VH: QVQLVQSGGGPVKPGGSLRLSCAASGFMFRAYSMNWVRQAPGKGLEWVSSISSSGRYIHYADSVKGRFTISRDNAKNSLYLQMNSLRAEDTAVYYCARETVMAGKALDYWGQGTLVTVSS
VL: ELVLTQSPGTLSLSPGETATLSCRASQSVGSNLAWYQQKPGQAPRLLIYGASTGATGVPARFSGSRSGTDFTLTITSLQPEDFATYYCQQYYSFLAKTFGQGTQLEIKR
binds: all assays above
